Microarray screen: hit calls

Targets (5′ to 3′):
PreQ1: PreQ1 riboswitch RNA pseudoknot, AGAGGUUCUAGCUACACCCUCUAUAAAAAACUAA. From B. subtilis. About 24,000 compounds screened, about 170 hits.
TPP: TPP riboswitch RNA three-way junction, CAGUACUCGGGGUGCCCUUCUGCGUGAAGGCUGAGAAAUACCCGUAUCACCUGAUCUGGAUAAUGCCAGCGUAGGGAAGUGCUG. About 24,000 compounds screened, about 160 hits.
SAM-II: SAM-II riboswitch RNA pseudoknot, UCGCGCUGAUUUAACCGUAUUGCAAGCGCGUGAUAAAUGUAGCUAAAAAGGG. About 21,000 compounds screened, about 200 hits.

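Each compound is printed as two spots on a slide made to bind it covalently, so it has no test concentration; the read-out is fluorescence of the bound, labelled oligonucleotide. For the PreQ1, TPP and SAM-II riboswitches the laboratory earlier reported (doi:10.1038/s41467-019-09493-3) 1 µM RNA, 2 h, and a rule that included a mean Z-score above 3 (spot signal-to-noise against the whole library), a score well above that on a control array, and duplicate spots agreeing (coefficient of variation under 100). The data file gives only the calls; its cut-offs may differ, and compounds hitting several targets are kept. A missing hit is not proof of no binding, and a hit is not a measured affinity.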
Key: Y = hit, N = tested without a hit.
Compounds were drawn at random from those tested, without regard to their results.
A target missing from an entry has no call listed here.
A dash means that no call is listed here.

| # | compound | PreQ1 | TPP | SAM-II |
|---|---|---|---|---|
| 1 | `C=CCOC(=O)C1=C(C)OC(N)=C(C#N)C1c1cccs1` (centres unmarked) | N | N | N |
| 2 | `COC(=O)[C@H](Cc1ccccc1)NC(=O)[C@@H](N)CC(=O)O` | N | N | N |
| 3 | `CCCCCCCNC1CC(=O)N(c2ccc(F)cc2)C1=O` (centres unmarked) | N | N | N |
| 4 | `Fc1cccc(Nc2nc3ccc(Cl)cc3n3cnnc23)c1` | N | N | N |
| 5 | `CCOc1ccc(CNCCc2ccc3c(c2)OCO3)cc1` | N | N | N |
| 6 | `CCCCSc1ncc(C(=O)OCC)c(N)n1` | N | N | - |
| 7 | `Brc1cccc(-c2nc3cnccn3c2NC2CCCCC2)c1` | N | N | N |
| 8 | `CCOC(=O)c1cc(CNC(C)c2ccc(N3CCCCC3)cc2)on1` (centres unmarked) | N | N | N |
| 9 | `COc1ccc(CCCNC(=O)c2ccc(-c3ccccc3CO)nc2)cc1` | N | N | N |
| 10 | `COc1cccc(CNC2=NS(=O)(=O)C(c3ccc(Cl)cc3)=C2C)c1` | N | N | - |
| 11 | `Cc1oc2ncnc(NC3CCCCCCC3)c2c1C(=O)O` | N | N | N |
| 12 | `Cn1ccnc1-c1nccn1CC(CO)Cc1ccsc1` (centres unmarked) | N | N | N |
| 13 | `Cn1nnnc1SCCNCC(=O)NC1CCCCCCC1` | N | N | N |
| 14 | `Cc1ccccc1OCC(O)CNC(=O)c1ccccc1C(=O)O` (centres unmarked) | N | N | N |
| 15 | `Cc1ncc(C(=O)NCc2cc3n(n2)CCNC3)c(-c2ccccc2)n1` | N | N | N |
| 16 | `Cc1cc(=O)n2nc(-c3ccc(C(C)(C)C)cc3)cc2[nH]1` | N | N | N |
| 17 | `Oc1ccccc1-c1nc2ncccn2c1Nc1ccccc1` | N | N | N |
| 18 | `COc1cc(C2Nc3cccc4cccc(c34)N2)cc(I)c1O` | N | N | N |
| 19 | `O=C1CCC2(CCCN(Cc3ccnc4ccccc34)C2)CN1CCCO` (centres unmarked) | N | N | N |
| 20 | `Nc1ncnc2oc(-c3ccccc3)c(-c3ccccc3)c12` | Y | N | N |
| 21 | `Cc1ncc(CC(=O)N2C[C@H](CO)C[C@H](CN3CCCC3)C2)c(=O)[nH]1` | N | N | N |
| 22 | `Cc1cc(CS(=O)(=O)c2ccccc2)cc(OCc2ccc(CN3CCC[C@H]3CO)cc2)c1` | N | N | N |
| 23 | `CCN(CC)C(=O)[C@@H]1C[C@H](N)CN1C(=O)c1cnc2sccn2c1=O` | N | N | N |
| 24 | `OC(COc1cccc(CN2CC(c3ccccn3)C2)c1)CN1CCOCC1` (centres unmarked) | N | N | N |
| 25 | `O=C(Cn1ccc2ccccc21)N1C[C@@H](CN2CCOCC2)C[C@H](CO)C1` | N | N | N |
| 26 | `Fc1ccc(C(Nc2ccccc2)c2nnc(-c3ccccc3)o2)cc1` (centres unmarked) | N | N | N |
| 27 | `Cn1c(CC(=O)NCCCO)c(Sc2ccccc2)c2ccccc21` | N | N | N |
| 28 | `Cc1cc2c(Nc3ccccc3C)ncnc2s1` | N | N | N |
| 29 | `CCNc1nc(C)cc(N2CCN(S(=O)(=O)c3ccc(OC)c(C)c3)CC2)n1` | N | N | - |
| 30 | `O=S(=O)(c1ccccc1)c1cnc2ccc(F)cc2c1NCc1ccc(F)cc1` | N | N | - |
| 31 | `CCOC(=O)c1sc2nc(C)cc(C(F)(F)F)c2c1N` | N | N | N |
| 32 | `O=C([C@H]1CNC[C@H](C(=O)N2CCN(c3ccncc3)CC2)C1)N1CCCC1` | N | N | N |
| 33 | `COc1ccc(C(=O)N2C[C@@H](CN3CCCCC3)[C@@H](CO)C2)cc1F` | N | N | N |
| 34 | `O=C(O)c1ccc(COc2ccc(CO)cc2Cl)cc1` | N | N | N |
| 35 | `CCCN(C(=O)CNC)C1CCCCCC1` | N | N | N |
| 36 | `Cc1nnc2c3ccccc3nc(Nc3ccc(C(=O)O)cc3)n12` | N | N | - |
| 37 | `Cc1ccc2ncccc2c1CN1CCN(CCO)[C@@H]2CS(=O)(=O)C[C@@H]21` | N | N | N |
| 38 | `CCOC(=O)CNc1nc(Cl)nc(N2CCOCC2)n1` | N | N | N |
| 39 | `CCN(c1ccccc1)c1cc(NC)[n+](C)c(C)n1` | N | N | N |
| 40 | `Cn1ccnc1-c1nccn1CC(O)c1cccnc1` (centres unmarked) | N | N | N |
| 41 | `CCOc1cc(CNCc2c(C(=O)O)n(C)c3cc(OC)ccc23)ccc1OC` | N | N | - |
| 42 | `CC(=O)CC(=O)Nc1ccc2ccccc2c1` | N | N | N |
| 43 | `Cc1nc(C)c(C)c(NCC(O)c2ccccn2)n1` (centres unmarked) | N | N | N |
| 44 | `Cc1ccc(-c2cc(Nc3cccc4cccnc34)nc(C)n2)cc1` | N | N | - |
| 45 | `O=c1oc2cc(O)ccc2s1` | N | N | N |
| 46 | `Cc1cccc(OCC(=O)N2CCCC(O)(CO)CC2)c1C` (centres unmarked) | N | N | N |
| 47 | `Cc1csc(-c2nnc(Nc3ccc(Oc4ncccc4-c4ccnc(N)n4)cc3)c3ccccc23)c1` | N | Y | N |
| 48 | `Cc1ccccc1-c1ncc(CN2CC[C@@H](N)[C@H](O)C2)s1` | N | N | N |
| 49 | `COC1CCN(S(=O)(=O)NC[C@@H]2C[C@H](F)CN2)CC1` | N | N | N |
| 50 | `COc1ccccc1OC1CCN(c2cccc(C(C)O)n2)CC1` (centres unmarked) | N | N | N |
| 51 | `CCOC(=O)c1cnc(-c2ccccc2)nc1NCc1ccccc1` | N | N | N |
| 52 | `O=C(NCc1ccc(F)cc1Cl)C1CC12CCNCC2` (centres unmarked) | N | N | N |
| 53 | `Nc1c(C(=O)c2ccc(Br)cc2)oc2ccccc12` | N | N | N |
| 54 | `COc1ccc(C(O)C(=O)N2CCC3(CCC(=O)N(CCN(C)C)C3)CC2)cc1` (centres unmarked) | N | N | N |
| 55 | `COc1ccc(-c2csc(C3=C(N)N(C4CCCCCCC4)CC3=O)n2)cc1OC` | N | N | - |

7 of the entries, repeated:

{"compound": "Cc1cccc(OCC(=O)N2CCCC(O)(CO)CC2)c1C", "stereo": "centres unmarked", "PreQ1": "N", "TPP": "N", "SAM-II": "N"}
{"compound": "Cc1ncc(CC(=O)N2C[C@H](CO)C[C@H](CN3CCCC3)C2)c(=O)[nH]1", "PreQ1": "N", "TPP": "N", "SAM-II": "N"}
{"compound": "Cc1cc(=O)n2nc(-c3ccc(C(C)(C)C)cc3)cc2[nH]1", "PreQ1": "N", "TPP": "N", "SAM-II": "N"}
{"compound": "Cn1ccnc1-c1nccn1CC(CO)Cc1ccsc1", "stereo": "centres unmarked", "PreQ1": "N", "TPP": "N", "SAM-II": "N"}
{"compound": "CCCCSc1ncc(C(=O)OCC)c(N)n1", "PreQ1": "N", "TPP": "N"}
{"compound": "COc1ccc(C(O)C(=O)N2CCC3(CCC(=O)N(CCN(C)C)C3)CC2)cc1", "stereo": "centres unmarked", "PreQ1": "N", "TPP": "N", "SAM-II": "N"}
{"compound": "Cn1c(CC(=O)NCCCO)c(Sc2ccccc2)c2ccccc21", "PreQ1": "N", "TPP": "N", "SAM-II": "N"}

From ROBIN, a set of small-molecule microarray screens (doi:10.1002/anie.202211358).